Results deposited as PubChem BioAssay AID1259405 (NCATS, 2018)
Here is one part, drawn at random, of about 50,000 reagents tested. About 4,000 of all reagents (8%) were called active. 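Mouse siRNA library applied to hamster cells; one well for each siRNA.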 Reagents against one gene are numbered here. Reagent sequences are not shown.

- Screen: 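Mouse-designed siRNAs used to find CHO productivity engineering targets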 (primary screen)
- System: Chinese hamster CHO-K1 ovary cells with stable secreted eGFP expression
- Reagents: single siRNA against mouse genes, 0.8 pmol siRNA per well (2 µl of 400 nM stock)
- Timing: 3 days
- Read-out: 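Percent of the per-plate non-targeting control median for intracellular GFP per well by laser scanning cytometry and for cell viability by ATP luminescence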
- Direction: GFP, % of control: higher = more GFP per well, higher productivity; viability (ATP), % of control: higher = more viable cells (more ATP)
- Active means: 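Called active when intracellular GFP, relative to negative control, is at or above 120%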

For Ggt7 #1, the values are GFP, % of control 42.6; viability (ATP), % of control 61; inactive.
After knock-down of Ggt7 #2 the results were GFP, % of control 56.8; viability (ATP), % of control 65.8; inactive.
With knock-down of Ggt7 #3, the screen gave GFP, % of control 64.6; viability (ATP), % of control 68.2; inactive.
Against Plin3 #1, the entry reads GFP, % of control 104; viability (ATP), % of control 75.4; inactive.
Plin3 #2 scored GFP, % of control 120; viability (ATP), % of control 84.5; active.
Knock-down of Plin3 #3 resulted in: GFP, % of control 89.1; viability (ATP), % of control 77.8; inactive.
Depletion of Cuzd1 #1 resulted in: GFP, % of control 92; viability (ATP), % of control 82.6; inactive.
Cuzd1 #2 gave GFP, % of control 73.4; viability (ATP), % of control 98.8; inactive.
Knock-down of Cuzd1 #3 resulted in: GFP, % of control 128; viability (ATP), % of control 125; active.
Against Prr13 #1, the entry reads GFP, % of control 66.2; viability (ATP), % of control 68.6; inactive.
Prr13 #2 scored GFP, % of control 57.2; viability (ATP), % of control 75.4; inactive.
Prr13 #3 gave GFP, % of control 82.4; viability (ATP), % of control 78.7; inactive.
Depletion of Plcg1 #1 resulted in: GFP, % of control 48; viability (ATP), % of control 77.3; inactive.
Against Plcg1 #2, the values are GFP, % of control 68.8; viability (ATP), % of control 83.6; inactive.
For Plcg1 #3, the values are GFP, % of control 50.3; viability (ATP), % of control 47.4; inactive.

Records above called active, once more:
Plin3 #2 | GFP, % of control: 120; viability (ATP), % of control: 84.5; activity call: active
Cuzd1 #3 | GFP, % of control: 128; viability (ATP), % of control: 125; activity call: active

Further entries follow.
With knock-down of Fubp1 #1, the record shows GFP, % of control 58; viability (ATP), % of control 60.3; inactive.
After knock-down of Fubp1 #2 the results were GFP, % of control 95.2; viability (ATP), % of control 88.7; inactive.
Silencing of Fubp1 #3 resulted in: GFP, % of control 89.2; viability (ATP), % of control 65.7; inactive.
Silencing of D830013H23Rik #1 gave: GFP, % of control 66.9; viability (ATP), % of control 84.1; inactive.
Depletion of D830013H23Rik #2 came out at: GFP, % of control 68; viability (ATP), % of control 82.1; inactive.
After knock-down of D830013H23Rik #3 the results were GFP, % of control 86.7; viability (ATP), % of control 92.8; inactive.
With knock-down of Or9m1 #1, the screen gave GFP, % of control 123; viability (ATP), % of control 78.5; active.
With knock-down of Or9m1 #2, the record shows GFP, % of control 60.7; viability (ATP), % of control 84; inactive.
Against Or9m1 #3 the deposit lists GFP, % of control 57.7; viability (ATP), % of control 49.6; inactive.
After knock-down of Diras1 #1, the screen gave GFP, % of control 78; viability (ATP), % of control 73.7; inactive.
Against Diras1 #2, the values are GFP, % of control 150; viability (ATP), % of control 111; active.
Diras1 #3 scored GFP, % of control 94.8; viability (ATP), % of control 105; inactive.
For Sav1 #1, the entry reads GFP, % of control 68.7; viability (ATP), % of control 73.7; inactive.
Depletion of Sav1 #2 resulted in: GFP, % of control 98.3; viability (ATP), % of control 100; inactive.
Knock-down of Sav1 #3 gave: GFP, % of control 93.6; viability (ATP), % of control 130; inactive.
Depletion of Zfp667 #1 resulted in: GFP, % of control 44.1; viability (ATP), % of control 50; inactive.
Against Zfp667 #2, the entry reads GFP, % of control 92.6; viability (ATP), % of control 94.7; inactive.
Cyp2c66 #1 showed GFP, % of control 69; viability (ATP), % of control 74.4; inactive.
Depletion of Cyp2c66 #2 came out at: GFP, % of control 79.2; viability (ATP), % of control 74.6; inactive.
Cyp2c66 #3 scored GFP, % of control 51.4; viability (ATP), % of control 63.8; inactive.
Silencing of Tmem74 #1 came out at: GFP, % of control 89.2; viability (ATP), % of control 69.3; inactive.
Silencing of Tmem74 #2 came out at: GFP, % of control 75.2; viability (ATP), % of control 79.1; inactive.
For Tmem74 #3, the entry reads GFP, % of control 118; viability (ATP), % of control 59.5; inactive.
Pgghg #1 gave GFP, % of control 59.2; viability (ATP), % of control 53.9; inactive.
Pgghg #2 showed GFP, % of control 79.2; viability (ATP), % of control 100; inactive.
With knock-down of Pgghg #3 the results were GFP, % of control 92.2; viability (ATP), % of control 40.7; inactive.
